Data taken from PubChem BioAssay (Tox21).
Where “and” joins values, the source holds several entries; their conditions need not be identical. Equal values may be shown once. The shares of active, inactive and inconclusive entries below differ from those in the screen. Where the call is inconclusive, the potency comes from a doubtful curve fit. Calls of active or inactive are those of the source. The call rests on the fitted dose curve; in most records, active means well fitted cell-killing curve with a large enough effect in the repeat runs; inconclusive means weak or mixed curves, or effect the other way; inactive means flat fitted curve, though single readings scatter.

test: cAMP Responsive Elements (CRE) small molecule agonists, cell-based qHTS assay: qHTS cell viability counter screen (AID 2060914); conditions: CRE-bla HEK293T viability, CellTiter-Glo luminescence, 5 h; series mostly up to 92.4 µM;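 further: viability read after 3 h of compound exposure; nearly all actives have a fitted effect of over 50% in size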
How it was run: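 CRE-bla HEK 293T cells, plated 18 h at 37 °C, were exposed to compounds for 3 h at 37 °C/5% CO2. Viability was then measured in the same wells by CellTiter-Glo luminescence after 30 min at room temperature.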
Potency means the concentration at half of the fitted maximal effect.

Compound	Potency
CC1(C)CC(O)CC(C)(C)N1[O]	inconclusive: 7.7 µM [cytotoxic, full curve, poor fit]
CCCCCC/C=C/C=O	inconclusive: 6.11 µM [cytotoxic, single point]
NCCNCCN	inconclusive: 6.11 µM [cytotoxic, single point]
CCCCNc1ccccc1	inconclusive: 2.73 µM [cytotoxic, single point]
COc1c(Cl)c(Cl)c(Cl)c(Cl)c1Cl	inconclusive: 0.0015 µM [cytotoxic, full curve, poor fit]
Cc1cc(C(C)(C)C)cc(C)c1CC1=NCCN1	inactive
C1CNCCN1	inconclusive: 0.0015 µM [rising, full curve, poor fit]
C[C@]12CC[C@@H]3c4ccc(O)cc4CC[C@H]3[C@@H]1CC[C@@H]2OC(=O)CCC1CCCC1	inconclusive: 2.73 µM [cytotoxic, single point]
CCc1ccc(C(=O)C(C)CN2CCCCC2)cc1 (stereo not drawn)	inconclusive: 0.119 µM [cytotoxic, single point]
COc1ccc(CCC(=O)c2c(O)cc(O[C@@H]3O[C@H](CO)[C@@H](O)[C@H](O)[C@H]3O[C@@H]3O[C@@H](C)[C@H](O)[C@@H](O)[C@H]3O)cc2O)cc1O	inactive
NS(=O)(=O)c1ccc(NC(=O)CCC(=O)O)cc1	inconclusive: 13.3 µM [cytotoxic, single point]
CCCC(=O)OC[C@@H](OC(=O)CCC)[C@@H](OC(=O)CCC)[C@H](Cn1c2nc(=O)[nH]c(=O)c-2nc2cc(C)c(C)cc21)OC(=O)CCC	inactive

Single entries from the entries so far:
C1CNCCN1 | Potency: inconclusive: 0.0015 µM [rising, full curve, poor fit]
Cc1cc(C(C)(C)C)cc(C)c1CC1=NCCN1 | Potency: inactive
